Results as given in patent publication US9637517 (dated 2017).

How the values were obtained:
[1] = general procedure: Fmoc solid-phase peptide synthesis; Rink Amide-MBHA; DIC/HOBt; settings: whole synthesis, scale 190 mmol, acetate
[2] = general procedure: Fmoc solid-phase peptide synthesis; Rink Amide-MBHA Resin; DIC/HOBt; settings: acetate
[3] = whole synthesis, HPLC (230 nm), SCX-HPLC for D-His-exenatide, scale 190 mmol, run 1
[4] = whole synthesis, HPLC (230 nm), SCX-HPLC for D-His-exenatide, scale 190 mmol, run 2

exenatide
crude mass ([1]; run 1): 836.97 g | crude mass ([1]; run 2): 846.9 g | final HPLC purity ([2]; purification step, 230 nm): greater than 98.5% | final HPLC purity ([2]; whole synthesis, HPLC (230 nm), SCX-HPLC for D-His-exenatide): 94.3% | crude purity (method not given) [2, 3]: 55.9% | final HPLC purity [2, 3]: 98.9% | crude purity (method not given) [2, 4]: 56.7% | final HPLC purity [2, 4]: 99.01% | isolated mass ([2]; whole synthesis, scale 190 mmol, run 1): 173.68 g | isolated mass ([2]; whole synthesis, scale 190 mmol, run 2): 176.84 g
